Results published in patent publication US20250298027A1, “METHOD OF EVALUATING SMALL MOLECULE DISTRIBUTION USING TELLUROPHENE ANALOGUES” (THE GOVERNING COUNCIL OF THE UNIVERSITY OF TORONTO, priority 2022, published 2025).
Some entries share one result that the patent states for a list of compounds.

System: PANC-1 cells
Assay: IncuCyte ZOOM cellular proliferation assay in PANC-1 cells
Assay type: cell-based, Human
Details: 100-hour incubation, cell confluency

COc1cc([C@@H]2c3cc4c(cc3[C@@H](OC3OC5COC(c6ccc[te]6)OC5C(O)C3O)[C@H]3COC(=O)C23)OCO4)cc(OC)c1O (stereo partly shown) [Compound 1, Tellurium-labelled teniposide]
concentration resulting in substantial reduction in PANC-1 cell proliferation: above 0.1 μM
